From the supplement of paper PMC12067093, “Discovery and optimisation of a covalent ligand for TRIM25 and its application to targeted protein ubiquitination” (Chemical Science, 2025)
This is one part of the list.

Compound: Cc1cc(ccc1-c1ccccc1)C(=O)N1CCCN(CC1)C(=O)CCl [compound 10]
Assay: probe-labelled cysteine peptide fold change vs DMSO (competition) (log2 fold change); higher = less target engagement (more negative = stronger competition)
Conditions: THP-1, incubation time: 4 h
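Further: competitive profiling in live THP-1 cells: cysteine peptides tagged with an iodoacetamide desthiobiotin (IA-DTB) probe, intensity after compound treatment relative to DMSO-treated cells.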

Target	probe-labelled cysteine peptide fold change (10 µM)	probe-labelled cysteine peptide fold change (50 µM)
PTPN1_P18031_231_SGTFCLADTCLLLMDK (UniProt P18031)	0.0304	0.0773
PSMD2_Q13200_205_EIVPYNMAHNAEHEACDLLMEIEQVDMLEK (UniProt Q13200)	-0.388	-0.307
PSMD7_P51665_116_RYCPNSVLVIIDVKPK (UniProt P51665)	-0.082	0.475
PSMG2_Q969U7_103_SKPFCEK (UniProt Q969U7)	-0.44	0.28
PSTPIP2_Q9H939_65_KKPCGQSEINTLK (UniProt Q9H939)	-0.16	-0.225
PTPN6_P29350_382_AYGPYSVTNCGEHDTTEYK (UniProt P29350)	0.00651	0.0547
PSMA7_O14818_91_VECQSHR (UniProt O14818)	-0.0884	0.537
PTPN1_P18031_121_CAQYWPQK (UniProt P18031)	-0.206	-0.0107
PUF60_Q9UHX1_129_ALAIMCR (UniProt Q9UHX1)	0.0582	0.241
PTBP1_P26599_251_LSLDGQNIYNACCTLR (UniProt P26599)	-0.353	-0.451
PUS10_Q3MIT2_223_SLFEVSVVFAHPETVEDCHFLAAICPDCFKPAK (UniProt Q3MIT2)	0.147	-0.0417
PTPN6_P29350_480_GLDCDIDIQK (UniProt P29350)	-0.0733	0.051
PTDSS1_P48651_347_QYYAYLTDTQCK (UniProt P48651)	0.204	0.447
PSME4_Q14997_798_LQHCGDGK (UniProt Q14997)	0.19	0.198
PTPN1_P18031_344_EETQEDKDCPIK (UniProt P18031)	-0.41	-0.973
PSMD4_P55036_9_VLESTMVCVDNSEYMR (UniProt P55036)	-0.0498	-0.0632
PTK2B_Q14289_972_LAQQNAVTSLSEECKR (UniProt Q14289)	-0.0215	-0.241

Target	probe-labelled cysteine peptide fold change (10 µM)	probe-labelled cysteine peptide fold change (50 µM)
PSMD11_O00231_289_CVAQASK (UniProt O00231)	-0.106	0.0595
PSMG2_Q969U7_168+178_CIPEIDDSEFCIR (UniProt Q969U7)	0.0824	0.133
PTER_Q96BW5_36_TLTHEHLAMTFDCCYCPPPPCQEAISK (UniProt Q96BW5)	-0.00632	-0.855
PTPRF_P10586_1582_TVDIYGHVTCMR (UniProt P10586)	-0.0291	0.131
PTPN11_Q06124_463_QESIMDAGPVVVHCSAGIGR (UniProt Q06124)	0.47	0.263
PSMA6_P60900_78_ITENIGCVMTGMTADSR (UniProt P60900)	0.214	-0.195
PSPC1_Q8WXF1_216_CGDGAFLLTTTPR (UniProt Q8WXF1)	-0.00684	0.226
PSMB2_P49721_91_NLADCLR (UniProt P49721)	-0.12	-0.218
PSMB7_Q99436_87_IHFISPNIYCCGAGTAADTDMTTQLISSNLELHSLSTGR (UniProt Q99436)	0.134	0.0984
PSMD10_O75832_107_GAQVNAVNQNGCTPLHYAASK (UniProt O75832)	0.213	0.0526
PTPRA_P18433_668_KEEECESYTVR (UniProt P18433)	0.0723	0.188
PTBP3_O95758_68_KIPCDVTEAEIISLGLPFGK (UniProt O95758)	-0.118	-0.541
PTPRJ_Q12913_1039_QQADSNCGFAEEYEDLK (UniProt Q12913)	-0.207	-0.0847
PSMB10_P40306_17_GGFSFENCQR (UniProt P40306)	-0.213	-0.383
PSMB8_P28062_7_ALLDVCGAPR (UniProt P28062)	-0.068	-0.273
PSMD7_P51665_116_YCPNSVLVIIDVKPK (UniProt P51665)	0.0412	0.00674
PTGS1_P23219_158_DCPTPMGTK (UniProt P23219)	-0.218	0.261

A stretch from further up, for reference:
Target	probe-labelled cysteine peptide fold change (10 µM)	probe-labelled cysteine peptide fold change (50 µM)
PSMD10_O75832_107_GAQVNAVNQNGCTPLHYAASK (UniProt O75832)	0.213	0.0526
PTPRA_P18433_668_KEEECESYTVR (UniProt P18433)	0.0723	0.188
PTBP3_O95758_68_KIPCDVTEAEIISLGLPFGK (UniProt O95758)	-0.118	-0.541
PTPRJ_Q12913_1039_QQADSNCGFAEEYEDLK (UniProt Q12913)	-0.207	-0.0847
PSMB10_P40306_17_GGFSFENCQR (UniProt P40306)	-0.213	-0.383
PSMB8_P28062_7_ALLDVCGAPR (UniProt P28062)	-0.068	-0.273
